Laboratory results taken from patent publication US20150299182A1, “CRYSTALLINE FORMS OF (1S)-1-[5-(AMINO)-1,2,4-THIADIAZOL-3-YL]ETHANE-1,2-DIOL” (Array BioPharma Inc., priority 2012, published 2015).
Some entries share one result that the patent states for a list of compounds.

Assay: Chemical and physical solid state stability on storage

SMILES: Cc1ncccc1Oc1cc(Sc2ccccn2)cnc1Nc1nc([C@H](O)CO)ns1 [Hydrate Form C, (1S)-1-[5-({3-[(2-methylpyridin-3-yl)oxy]-5-(pyridin-2-ylsulfanyl)pyridin-2-yl}amino)-1,2,4-thiadiazol-3-yl]ethane-1,2-diol]
- time found chemically stable (40° C./75% RH): up to 4 months

SMILES: Cc1ncccc1Oc1cc(Sc2ccccn2)cnc1Nc1nc([C@H](O)CO)ns1 [fumarate co-crystal Form A, (1S)-1-[5-({3-[(2-methylpyridin-3-yl)oxy]-5-(pyridin-2-ylsulfanyl)pyridin-2-yl}amino)-1,2,4-thiadiazol-3-yl]ethane-1,2-diol]
- time found chemically stable (40° C./75% RH): up to 4 months
- time found chemically stable (60° C.): up to 4 months
